Source: article PMC12638486

Tested on: CREB1 (recombinant)
Experiment: EMSA
Conditions: Beyotime EMSA kit, non-denaturing gel, chemiluminescent biotin detection, pH and temperature not stated, commercial protein, label: 5' biotin on forward strand

| Sequence | binding result (binding stated as negligible, weaker than G probe) | binding result |
| --- | --- | --- |
| AAGCCCTTCGATGTAAACGCATAT (double strand) [WT probe (rs1544105 A)] | no binding | – |
| AAGCCCTTCGACGTAAACGCATAT (double strand) [Mut probe (rs1544105 G)] | – | binds |

Construct, isoform or probe ends are uncertain for at least one entry. Negatives hold for the conditions tested.
